Laboratory results: article PMC6019701
No constants are given. Whether binding was seen depends on the method and setting. In cells and extracts the contact can be indirect. Some binding calls cover weakened binding; strength is not graded here. Where a sequence is shown, tags or fusion partners need not be part of it.

Chains of the proteins cited; added tags and fusions are not shown.
UniProt Q9NUW8: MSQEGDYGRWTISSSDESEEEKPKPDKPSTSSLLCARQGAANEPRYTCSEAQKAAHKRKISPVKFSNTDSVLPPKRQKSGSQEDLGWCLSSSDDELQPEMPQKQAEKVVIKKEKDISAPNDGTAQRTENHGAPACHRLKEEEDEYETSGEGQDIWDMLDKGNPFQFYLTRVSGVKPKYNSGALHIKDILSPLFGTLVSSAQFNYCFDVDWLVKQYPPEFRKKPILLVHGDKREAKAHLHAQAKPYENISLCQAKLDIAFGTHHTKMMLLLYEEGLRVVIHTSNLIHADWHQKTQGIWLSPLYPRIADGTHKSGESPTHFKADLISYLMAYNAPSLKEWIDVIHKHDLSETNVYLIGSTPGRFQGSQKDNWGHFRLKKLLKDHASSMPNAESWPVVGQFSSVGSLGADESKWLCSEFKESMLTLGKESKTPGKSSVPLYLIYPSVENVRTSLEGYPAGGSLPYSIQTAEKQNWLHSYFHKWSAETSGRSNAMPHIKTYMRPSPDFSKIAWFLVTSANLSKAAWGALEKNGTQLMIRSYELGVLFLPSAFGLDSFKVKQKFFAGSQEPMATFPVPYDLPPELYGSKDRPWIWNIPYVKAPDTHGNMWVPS

Target: T1, UCHL3-GFP (ubiquitin carboxyl-terminal hydrolase isozyme L3) (UniProt P15374)
T1 sequence: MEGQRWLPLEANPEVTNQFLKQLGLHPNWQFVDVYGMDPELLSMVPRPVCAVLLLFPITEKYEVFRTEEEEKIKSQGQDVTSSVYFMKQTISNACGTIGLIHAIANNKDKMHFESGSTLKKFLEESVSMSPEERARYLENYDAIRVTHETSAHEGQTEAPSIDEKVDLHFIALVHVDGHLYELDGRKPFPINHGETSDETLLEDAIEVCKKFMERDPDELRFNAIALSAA
Assay: co-IP; HEK293T cells transfected with Myc-TDP1 and UCHL3-GFP; cells treated with DMSO or 10 uM CPT for 20 min; lysate adjusted to 150 mM NaCl, GFP-Trap beads overnight at 4 C; anti-Myc and anti-GFP immunoblotting

Myc-TDP1 (tyrosyl DNA phosphodiesterase 1) (from UniProt Q9NUW8 1-608) (enzyme)
binding: binds
